No constants are given. Whether binding was seen depends on the method and setting. Some entries that bind do so weakly or less than the wild type. For part of these data: Sequences can lack the tags named with a protein.
What was measured:
[1] = molecular target: Claudin 18.2 VLP (UniProt P56856); experiment: ELISA, Claudin18.2-VLP coated 200 ng/well, anti-mouse IgG Fc detection; ranking by EC50
[2] = molecular target: Claudin18.2 recombinant protein (His tag) (UniProt P56856); experiment: ELISA, coated antigen 200 ng/well; antibody 100 ug/mL (so in the source); absorbance at 450 nm above the reader's range
[3] = molecular target: Claudin18.2 recombinant protein (His tag) (UniProt P56856); experiment: ELISA, coated antigen
[4] = molecular target: Claudin 18.2 VLP (UniProt P56856); experiment: ELISA, coated antigen

Amino acid sequences for entries named in this document (tags omitted). A change or cut given only in a name is not applied to a line headed by its entry. Chains listed by the source or under a name are the forms on record and can include a tag or linker.
Claudin 18.2 VLP (P56856, form named): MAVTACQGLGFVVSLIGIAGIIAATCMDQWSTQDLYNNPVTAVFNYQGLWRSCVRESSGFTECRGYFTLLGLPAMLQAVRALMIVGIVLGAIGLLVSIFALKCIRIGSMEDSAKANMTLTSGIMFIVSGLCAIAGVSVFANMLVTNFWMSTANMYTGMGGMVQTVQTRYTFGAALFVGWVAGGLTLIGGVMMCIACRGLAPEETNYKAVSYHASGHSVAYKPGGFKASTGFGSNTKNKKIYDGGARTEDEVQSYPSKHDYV

B1: 2-mIgG2aFc (Fc fusion, not shown: a dimerising Fc or GST)
chain: EVQLVESGGGLVQPGGSLRLSCAASGNILSINYMGWYRQAPGKERELVATITRGGSTNYQGNLKGRFIISGDNTKDTVYLQMNNLQPEDTAVYYCYFRINFGILGGLRDYWGQGTQVTVSS
binding [1]: binds

B2: 5-mIgG2aFc (Fc fusion, not shown: a dimerising Fc or GST)
chain: QVQLVESGGGLVQTGGSLRLSCAASDSTFSSYIMGWFRQAPGKEREFVAGITWSGGIKDYADSVKGRFTIARDNAKNTVYLQMNSLKPEDAAIYYCAANAIQLTRRSGDYAYWGQGTQVTVSS
binding [1]: binds

B3: 5H2-mIgG2a Fc (Fc fusion, not shown: a dimerising Fc or GST)
chain: QVQLVESGGGLVQPGGSLRLSCAASDSTFSSYIMGWFRQAPGKGLEFVAGITWSGGIKDYADSVKGRFTIARDNSKNTLYLQMNSLRAEDAAVYYCAANAIQLTRRSGDYAYWGQGTLVTVSS
binding [1]: binds

B4: 5-hIgG1Fc (Fc fusion, not shown: a dimerising Fc or GST)
chain: QVQLVESGGGLVQTGGSLRLSCAASDSTFSSYIMGWFRQAPGKEREFVAGITWSGGIKDYADSVKGRFTIARDNAKNTVYLQMNSLKPEDAAIYYCAANAIQLTRRSGDYAYWGQGTQVTVSS
binding [2]: binds
binding [3]: binds
binding [4]: binds

B5: 5H1-mIgG Fc (Fc fusion, not shown: a dimerising Fc or GST)
chain: QVQLVESGGGLVQTGGSLRLSCAASDSTFSSYIMGWVRQAPGKGLEWVAGITWSGGIKDYADSVKGRFTIARDNAKNTVYLQMNSLKPEDAAIYYCAANAIQLTRRSGDYAYWGQGTQVTVSS
binding [1]: binds

B6: 8-hIgG1Fc (Fc fusion, not shown: a dimerising Fc or GST)
chain: QVQLVESGGGLVQPGGSLRLSCAASGSIFGLNFMGWWRQAPGSQRELVAIATSGGSIQYGDSVKGRFTISRDNAKNTVYLQMASLKPEDTAVYYCNVHTYDFLGRDYWGQGTQVTVSL
binding [4]: binds

B7: 18-mIgG2aFc (Fc fusion, not shown: a dimerising Fc or GST)
chain: QVQLVESGGGLVQPGGSLRLSCAASGSILNLMTTGWYRQAPGKQRDLVATITFGGTTNYADAVKGRFTISRDNAKNTVYLQMNNLEPEDTAVYFCYLDYIFGFGDRRVAWDQGTQVTVSS
binding [1]: binds
